These are yes or no findings as the source states them, for the method shown. Binding seen in cells or lysates may run through a third protein. Some binding calls cover weakened binding; strength is not graded here. For some of these results: Where a sequence is shown, tags or fusion partners need not be part of it.
T1: GST-tagged mouse BBS7 (mouse) (UniProt Q8K2G4)
T1 sequence: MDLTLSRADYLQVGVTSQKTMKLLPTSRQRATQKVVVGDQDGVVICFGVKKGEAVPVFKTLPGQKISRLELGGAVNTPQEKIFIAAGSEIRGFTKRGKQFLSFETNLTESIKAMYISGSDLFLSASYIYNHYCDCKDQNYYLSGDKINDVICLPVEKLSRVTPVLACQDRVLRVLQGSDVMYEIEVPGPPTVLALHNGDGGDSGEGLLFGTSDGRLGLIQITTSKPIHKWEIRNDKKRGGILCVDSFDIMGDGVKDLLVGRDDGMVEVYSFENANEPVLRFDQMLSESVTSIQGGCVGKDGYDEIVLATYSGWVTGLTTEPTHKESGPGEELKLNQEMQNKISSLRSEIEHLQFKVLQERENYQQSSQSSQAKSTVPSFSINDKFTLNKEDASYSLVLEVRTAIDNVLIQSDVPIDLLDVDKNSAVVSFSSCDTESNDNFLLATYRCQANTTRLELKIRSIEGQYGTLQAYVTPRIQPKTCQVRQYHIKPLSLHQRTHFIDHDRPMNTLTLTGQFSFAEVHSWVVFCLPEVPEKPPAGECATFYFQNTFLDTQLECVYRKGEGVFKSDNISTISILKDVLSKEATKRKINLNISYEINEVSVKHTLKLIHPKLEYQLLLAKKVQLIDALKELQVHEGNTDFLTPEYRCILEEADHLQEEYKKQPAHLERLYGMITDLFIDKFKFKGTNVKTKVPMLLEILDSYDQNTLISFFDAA

Protein sequences, listed by entry. Tags and fused reporters are not part of them.
UniProt Q8VE09: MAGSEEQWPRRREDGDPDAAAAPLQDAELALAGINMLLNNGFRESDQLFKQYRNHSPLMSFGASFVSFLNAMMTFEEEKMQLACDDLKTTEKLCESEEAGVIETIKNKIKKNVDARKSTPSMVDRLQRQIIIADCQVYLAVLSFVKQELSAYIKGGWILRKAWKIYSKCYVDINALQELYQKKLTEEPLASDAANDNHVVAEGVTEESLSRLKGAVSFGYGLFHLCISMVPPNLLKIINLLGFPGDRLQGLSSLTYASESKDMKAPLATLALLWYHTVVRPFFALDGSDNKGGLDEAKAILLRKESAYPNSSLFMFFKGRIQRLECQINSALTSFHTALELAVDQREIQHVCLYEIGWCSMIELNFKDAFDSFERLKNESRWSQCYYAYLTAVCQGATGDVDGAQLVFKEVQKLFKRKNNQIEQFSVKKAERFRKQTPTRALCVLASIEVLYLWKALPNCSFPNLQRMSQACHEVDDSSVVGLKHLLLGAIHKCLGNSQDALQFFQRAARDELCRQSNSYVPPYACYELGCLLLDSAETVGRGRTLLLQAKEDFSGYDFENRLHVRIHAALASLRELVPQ


What was measured:
[1] = target: FLAG-tagged mouse TTC39c (mouse) (UniProt Q8VE09); assay: co-IP; HEK293T lysates with FLAG-tagged TTC proteins mixed with mouse testis lysates, 2 h at 4°C, then anti-FLAG resin; lysis buffer 20 mM Tris-Cl pH 7.5, 100 mM KCl, 1% NP-40; immunoblotting
[2] = target: T1, GST-tagged mouse BBS7 (mouse); assay: pull-down; GST-BBS7 on glutathione-agarose beads incubated with bacterial lysate containing His-tagged protein, 2 h at 4°C; wash 20 mM Tris-Cl pH 7.5, 150 mM KCl, 0.5% NP-40; western blotting; only the target purified

binding [1] | binding [2] | Binder
binds weakly |  | IFT139 (protein, UniProt Q0HA38 1-1315) MDSQGLKTLINYYCQERYYHHVLLVASEGMKKYSSDPVFRFYHAYGTLMEGKAQEALREFEAIKNKQDVSLCSLMALMYVHKMSPNPDREAILELDTKMKEQRKEAGRKALYHAGLFLWHIGRHDKAREYIDRMSKMPHDSNEGPILKAWLDITRGKEPYAKKALRYFEEGLQDGNDIFALLGKVLCLEIRQNYSGALETVSQIIVNFPSFLPAFEKKMKLQLALQDWDQTVETAQRLLLQDNHNVEALRMLALYYLCREGDVEKAATKLENLGNALDVMEPQNAQLFYKITLAFSRTCGRNQLILQKVQSFLEKAFSLTPQQAEIATELGYQMILQGKVKEAWKWYRTAMTLNESNISAVTGLIRCQLIEGQLQDADQQLEFFSEFQQSMGKSAELMYLHAVLATKKNNRQDEVINLLNDVVNTHFSHLEDLPLGIQYFEKLNPDFLLEVVTEYLNLCPIQPAGPGQPLSPVLRRCSSVLETIIRSVPGLPQAVFLMAKVKYLSGDTEAAYNNLQHCLEHSPSYAEAHLLMAQVYLSQDKVKLCSQSLELCLSYNFNVREYPLYHLIKAQSQKKMGEVAEAIKTLHMAMNLPGMRRSRASSKSKHRTEVDASHRLSIFLELVEVHRLNGEQHEAAKVLQDAIHEFSGTCEELRVTIANADLALAQGDTDRALSMLRNVTTEQPYFIEAKEKMADIYLKHRKEKMLYITCYREIAERMPSPRSFLLLGDAYMNIQEPEEAIVAYEQALNQNPKDGTLARKIGKALVKTHNYSKAITYYEAALKSGQQNCLCYDLAELLLRLKLYEKAEKVLQHSLAHEPVSELSALMVDGRSQVLLAKVYSKMERPSDAIAALQQARELQARILKRVQMEQPDAVPSQKHFAAEICAEIAKHSAAQRDYEKAITFYREALVHCETDSKIMLELAQLYLAQEDLDASLRHCALLLQRDQDNEPATMLMADLMFRKQDYEQAVYHLQQLLDRKPDNFMTLSRLIDLLRRCGKLEDVPRFFLMAEKHNSRTKLEPGFQYCKGLHFWYTGEPNDALRHFNKARKDSDWGQNALYNMIEICLNPDNETIGGEVFENLNGDLGTSPEKQESVQLAVRTAEKLLKELKPQTVQGRLQLRIMENCCLMATKQKSSVEQALNTFTEIAASEKDHIPALLGMATAYMILKQTPKARNQLKRIAKMPWNPIEAEDLEKSWLLLADIYIQSAKYDMAEELLKRCLCHNRSCCKAYEYMGYIMEKEQAYTDAAFNYEMAWKHSNQTNPAVGYKLAFNYLKAKRYVDAIDVCHQVLEAHPTYPKIRKDILDKARASLRP
 | binds | His-tagged human TTC4 (protein, UniProt O95801 1-387) MEQPGQDPTSDDVMDSFLEKFQSQPYRGGFHEDQWEKEFEKVPLFMSRAPSEIDPRENPDLACLQSIIFDEERSPEEQAKTYKDEGNDYFKEKDYKKAVISYTEGLKKKCADPDLNAVLYTNRAAAQYYLGNFRSALNDVTAARKLKPCHLKAIIRGALCHLELKHFAEAVNWCDEGLQIDAKEKKLLEMRAKADKLKRIEQRDVRKANLKEKKERNQNEALLQAIKARNIRLSEAACEDEDSASEGLGELFLDGLSTENPHGARLSLDGQGRLSWPVLFLYPEYAQSDFISAFHEDSRFIDHLMVMFGETPSWDLEQKYCPDNLEVYFEDEDRAELYRVPAKSTLLQVLQHQRYFVKALTPAFLVCVGSSPFCKNFLRGRKVYQIR
binds weakly |  | IFT144 (protein, UniProt Q3UGF1 1-1341) MKRVFSLLEKSWLGAPIQFAWQKSSGNYLAVTGADYIVKIFDRHGQKRSEISLPGNCVTMDWDKDGDILAVIAEKSSCIYLWDANTNKTSQLDNGMRDQMSFLLWSKIGSFLAVGTIKGNLLIYNHQTSRKIPVLGKHTKKITCGCWNSENLLALGGEDKMITVSNQEGDTIRQTPVKSEPSDIKFSMSKTDERISSAENTISAVVGKKMLFLFHLNEPDNPVDLEFQQAYGNIVCYSWYGDGYIMIGFSRGTFLAISTHFPEVGQEIFKARDHKDNLTSVALSQTLNKAATCGDNCIKIHDLTELRDMYAIINLDDENKGLGTLSWTDDGQLLALSTQRGSLHVFLTKLPILGDACHTRIAYLTSLLEVTVANLIEGEPPITVSVDVEPTFVAVGLYHLAVGMNNRAWFYVLGENVVKKLKDVEYLGTVASICLHSDYAAALFEGKIQLHLIENEMLDAQEERETRLFPAVDDKCRILCHALTSDFLIYGTDTGIIHYFFIEDWQFVNDYRHPVGVKKLFPDPNGTRLVFIDEKSDGFVYCPVNDATYEIPDFSPTIKGVLWENWPMDKGVFIAYDDDKVYTYAFHKDTIQGSKVILAGSTKLPFSHKPLLLYNGELTCQTQSGKINSIYLSTHSFLGSMKDTEPTDLRQMLTQTLLLKRFSDAWDICKMLNDRTSWSELAKACLHHMEVEFAIRVSRTMGDVGTVMSLEQIKGIEDYNLLAGHLAMFTNDFNLAQDLYLASNCPVAALEMRRDLQHWDSALQLAKRLAPDQIPFISKEYAIQLEFTGDYVNALAHYEKGITGDNKEHDEVCLAGVAQMSIRMGDIRRGANQALKHPSRVLKRDCGAILENMKQFSEAAQLYEKGQYYDRAASVYIRCKNWAKVGELLPHVSSPKIHLQYAKAKEADGRYKEAVVAYENAKQWNSVIRIYLDHLNNPEKAVSIVRETQSLDGAKMVARFFLQLGDYGSAIQFLVLSKCNNEAFTLAQQHNKMEIYADIIGAEDTTNEDYQSIALYFEGEKRHFQAGKFFLLCGQYSRALKHFLKCPSSEDNVAIEMAIETVGQAKDELLTNQLIDHLMGESDGMPKDAKYLFRLYMALKQYREAARTAIIIAREEQSAGNYRNAHDVLFSMYAELKAQKIKIPSEMATNLMILHSYILVKIHVKSGDHMKGARMLIRVANNISKFPSHIVPILTSTVIECHRAGLKNSAFSFAAMLMRPEYRNKIDAKYKKKIEAMVRRPDTSETEEATTPCPFCQFLLPECELLCPGCKNNIPYCIATGRHMLKDDWTMCPHCGFPALYSEFKILLNSESTCPMCSERLNSSQLKKITDCSQYLRTEME
 | binds | His-tagged human TTC9c (protein, UniProt Q8N5M4-1 1-171) MEKRLQEAQLYKEEGNQRYREGKYRDAVSRYHRALLQLRGLDPSLPSPLPNLGPQGPALTPEQENILHTTQTDCYNNLAACLLQMEPVNYERVREYSQKVLERQPDNAKALYRAGVAFFHLQDYDQARHYLLAAVNRQPKDANVRRYLQLTQSELSSYHRKEKQLYLGMFG

Source: PMC4393279
